Test results from PubChem BioAssay AID328 (DTP/NCI, 2004).
The list is a part of this screen's results and no random one: it is rich in T/C values a quarter to a half above the control, in often repeated tests (any T/C) and in doses without a T/C. Further doses and runs are listed elsewhere. T/C: endpoint of the treated group in % of that of the vehicle group. Some doses have a count of surviving animals in place of a T/C: the source files T/C as zero there, which appears to mark a toxic dose or a test without result, not a measured value. Some doses without a T/C left all or most animals alive at the check, yet need not have been tolerated: the source hardly ever lists a survival T/C far under the control, and the zero likely stands for such cases as well. Counts of survivors are from the toxicity check (mostly the fifth day) where no day follows; animals may have died later. Schedule codes are those of the source, read here as Q, the interval in days (D) or hours (H), X, the number of doses. Some entries hold several experiments; the values are given in rising order. Where survival is the endpoint, the PubChem record calls one and a half times the control and up active, and a quarter to a half above the control has no call in these data; cut-offs in other NCI protocols can differ. Some T/C values are followed by the survivors on the day toxicity was checked, most often the fifth; without a count, all were alive then.

Tested on: BDF1 mice, P388 leukemia ip, median survival T/C
Assay: NCI In Vivo Anticancer Drug Screen. Data for tumor model P388 Leukemia (intraperitoneal) in B6D2F1 (BDF1) mice
Settings: T/C endpoint: median survival time, higher T/C = longer survival
In short: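 T/C = treated-group survival ÷ vehicle-control survival; tumour transplanted into mice before dosing.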

[1] = dose: 400.0 mg/kg/injection, schedule: Q04DX003 (ip), vehicle: saline with Tween-80

Q: For [C-]#[N+]C(C)Cc1ccccc1 (configuration not stated), which survivor count (dose: 100.0 mg/kg/injection, schedule: Q04DX003 (ip), vehicle: saline with Tween-80) is on record?
A: 0 of 6

Q: And the survivor count (dose: 200.0 mg/kg/injection, schedule: Q04DX003 (ip), vehicle: saline with Tween-80)?
A: 0 of 6

Q: And the survivor count [1]?
A: 0 of 6

Q: How did the survivor count [1] turn out when Oc1ccc(C2N(c3ccccc3)CCN2c2ccccc2)cc1 was run?
A: 0 of 6

Q: How did the survivor count (dose: 400.0 mg/kg/injection, schedule: Q04DX003 (ip), vehicle: Klucel (hydroxypropylcellulose) (HPC)) turn out when COC(=O)c1cc(=O)n(-c2cccc(F)c2)c(SC)n1 was run?
A: 0 of 6

Q: How did the survivor count (dose: 0.39 mg/kg/injection, schedule: Q01DX009 (ip), vehicle: water) turn out when Cc1cc(C)[s+]s1 was run?
A: 6 of 6

Q: And the survivor count (dose: 1.56 mg/kg/injection, schedule: Q01DX009 (ip), vehicle: water)?
A: 5 of 6

Q: And the survivor count (dose: 6.25 mg/kg/injection, schedule: Q01DX009 (ip), vehicle: saline)?
A: 6 of 6

Q: And the survivor count (dose: 12.5 mg/kg/injection, schedule: Q01DX009 (ip), vehicle: saline)?
A: 6 of 6

Q: What about the survivor count (dose: 25.0 mg/kg/injection, schedule: Q01DX009 (ip), vehicle: saline) of the same compound?
A: 6 of 6

Q: And the survivor count (dose: 50.0 mg/kg/injection, schedule: Q01DX009 (ip), vehicle: saline)?
A: 6 of 6

Q: And the survivor count (dose: 100.0 mg/kg/injection, schedule: Q01DX009 (ip), vehicle: saline)?
A: 1 of 6

Q: And the survivor count (dose: 200.0 mg/kg/injection, schedule: Q01DX009 (ip), vehicle: saline)?
A: 2 of 6

Q: Which survivor count (dose: 200.0 mg/kg/injection, schedule: Q04DX003 (ip), vehicle: saline sonified) does the source give for CN1CCN(C(=O)Nc2ccc(N=Nc3ccccc3)cc2)CC1 here?
A: 6 of 6

Q: What does the source list for Cc1ccc2c(NCCCCCCCCNc3c4ccccc4nc4cc(C)ccc34)c3ccccc3nc2c1?
A: T/C (dose: 0.63 mg/kg/injection, schedule: Q01DX009 (ip), vehicle: water): 131 % of control; T/C (dose: 1.25 mg/kg/injection, schedule: Q01DX009 (ip), vehicle: water): 144 % of control; T/C (dose: 2.5 mg/kg/injection, schedule: Q01DX009 (ip), vehicle: water): 146 % of control; T/C (dose: 5.0 mg/kg/injection, schedule: Q01DX009 (ip), vehicle: water): 140 % of control; survivor count (dose: 10.0 mg/kg/injection, schedule: Q01DX009 (ip), vehicle: water): 5 of 6

Q: For Cn1c(N)c(N=O)c(=O)n(C)c1=O, which survivor count (dose: 12.5 mg/kg/injection, schedule: Q01DX009 (ip), vehicle: Klucel (hydroxypropylcellulose) (HPC)) is on record?
A: 6 of 6

Q: How did the survivor count (dose: 0.02 mg/kg/injection, schedule: Q01DX009 (ip), vehicle: saline + alcohol) turn out when C/C=C(\C)C(=O)OC1C(C)C2(O)C(C=C(CO)CC3(O)C(=O)C(C)=CC32)C2C(C)(C)C12OC(=O)CCCCCCCCC (configuration not stated) was run?
A: 4 of 4

Q: What about the T/C (dose: 0.02 mg/kg/injection, schedule: Q01DX009 (ip), vehicle: saline with Tween-80) of the same compound?
A: 125 % of control

Q: What about the T/C (dose: 0.03 mg/kg/injection, schedule: Q01DX009 (ip), vehicle: saline + alcohol) of the same compound?
A: 133 % of control

Q: And the T/C (dose: 0.03 mg/kg/injection, schedule: Q01DX009 (ip), vehicle: saline with Tween-80)?
A: 125 % of control

Q: And the T/C (dose: 0.06 mg/kg/injection, schedule: Q01DX009 (ip), vehicle: gum acacia)?
A: 136 % of control

Q: And the T/C (dose: 0.06 mg/kg/injection, schedule: Q01DX009 (ip), vehicle: saline + alcohol)?
A: 135 % of control

Q: What about the survivor count (dose: 0.06 mg/kg/injection, schedule: Q01DX009 (ip), vehicle: saline with Tween-80) of the same compound?
A: 4 of 4

Q: What about the T/C (dose: 0.12 mg/kg/injection, schedule: Q01DX009 (ip), vehicle: gum acacia) of the same compound?
A: 136 % of control [3 of 4 alive]

Q: And the T/C (dose: 0.12 mg/kg/injection, schedule: Q01DX009 (ip), vehicle: saline + alcohol)?
A: 127 [3 of 4 alive], 133, 135 % of control

Q: And the survivor count (dose: 0.12 mg/kg/injection, schedule: Q01DX009 (ip), vehicle: saline with Tween-80)?
A: 4 of 4

Q: What about the survivor count (dose: 0.25 mg/kg/injection, schedule: Q01DX009 (ip), vehicle: gum acacia) of the same compound?
A: 4 of 4

Q: What about the T/C (dose: 0.25 mg/kg/injection, schedule: Q01DX009 (ip), vehicle: saline + alcohol) of the same compound?
A: 140 and 143 % of control

Q: And the survivor count (dose: 0.25 mg/kg/injection, schedule: Q01DX009 (ip), vehicle: saline with Tween-80)?
A: 3 of 4

Q: What about the survivor count (dose: 0.5 mg/kg/injection, schedule: Q01DX009 (ip), vehicle: gum acacia) of the same compound?
A: 4 of 4

Q: What about the survivor count (dose: 0.5 mg/kg/injection, schedule: Q01DX009 (ip), vehicle: saline + alcohol) of the same compound?
A: 1 of 4 and 3 of 6

Q: What about the survivor count (dose: 0.5 mg/kg/injection, schedule: Q01DX009 (ip), vehicle: saline with Tween-80) of the same compound?
A: 0 of 4

Q: And the survivor count (dose: 1.0 mg/kg/injection, schedule: Q01DX009 (ip), vehicle: gum acacia)?
A: 0 of 4

Q: What about the survivor count (dose: 1.0 mg/kg/injection, schedule: Q01DX009 (ip), vehicle: saline + alcohol) of the same compound?
A: 0 of 4 and 0 of 6

Q: And the survivor count (dose: 1.0 mg/kg/injection, schedule: Q01DX009 (ip), vehicle: saline with Tween-80)?
A: 0 of 4

Q: What about the survivor count (dose: 2.0 mg/kg/injection, schedule: Q01DX009 (ip), vehicle: gum acacia) of the same compound?
A: 0 of 4

Q: And the survivor count (dose: 2.0 mg/kg/injection, schedule: Q01DX009 (ip), vehicle: saline + alcohol)?
A: 0 of 4

Q: And the survivor count (dose: 2.0 mg/kg/injection, schedule: Q01DX009 (ip), vehicle: saline with Tween-80)?
A: 0 of 4
